Values quoted from earlier work as cited in patent publication US20260191797A1, “AMPHIPHILIC POLY(AMINO ACID) LINEAR BLOCK COPOLYMERS AND NANOPARTICLES THEREOF FOR DRUG DELIVERY APPLICATIONS” (Nanothera Biosciences Inc., priority 2022, published 2026).

Details: free paclitaxel

## CC(=O)O[C@H]1C(=O)[C@@]2(C)[C@H]([C@H](OC(=O)c3ccccc3)[C@]3(O)C[C@H](OC(=O)[C@H](O)[C@@H](NC(=O)c4ccccc4)c4ccccc4)C(C)=C1C3(C)C)[C@]1(OC(C)=O)CO[C@@H]1C[C@@H]2O [PTX, Paclitaxel]
  PTX solubility in water: lower than 0.1 μg/mL
